# Test results from PubChem BioAssay AID493014 (National Center for Advancing Translational Sciences (NCATS), 2011).
# The whole screen tested about 340,000 compounds, of which about 170 (0.05%) were called active. The inconclusive results got no clear call from the source; some entries with a clear call stand among them for comparison. Calls follow the shape of the dose curve; as a rule, active = well fitted inhibition curve with a large enough effect in the signal ratio, with a control signal flat (not every such curve was filed as active); inconclusive = small, poorly fitted or top-dose-only effect, or effect the other way, or a change in a side signal; inactive = flat fitted curve, though single readings scatter; the % refers to the signal ratio. Potencies of inconclusive entries are doubtful fits and often do not repeat.
# Assay: qHTS Assay to Find Inhibitors of Chronic Active B-Cell Receptor Signaling;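 as to activity change, negative = inhibition: plate controls were basal doxycycline-induced cells for no effect and cells given 10 µM MG132 for full effect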
# Settings: ABC-DLBCL IkBa-CBG/CBR reporter, luminescence ratio (green luciferase fused to IkBa over red control in TMD8 lymphoma cells), 4 h; activity change, negative = inhibition: at 46.1 µM (top of the series) unless noted
# How it was run: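 Compounds up to 46 uM were incubated four hours with TMD8 cells whose green CBG68 luciferase is fused to IkappaBalpha; red CBR luminescence normalised the signal, and concentration-effect curves were fitted to fusion, red and ratio data.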
# Potency is read from the fitted curve at half-maximal effect.
SMILES,"activity change, negative = inhibition",Potency
O=C(CCS(=O)(=O)c1ccccc1)Nc1cccc2c1C(=O)NC2=O,inconclusive: 17.4%,–
COC(=O)C1=CC(C(=O)c2cccs2)=NN(c2ccc(OC)cc2)C1C(=O)OC (centres undefined),inactive,–
CCCCC(=O)Nc1ccc(C(=O)Nc2cc(C(F)(F)F)ccc2Cl)cc1,inconclusive: -1.53%,–
CCOC(=O)c1c(C)c(C(=O)NC(C)COC)c(C)n1C (centres undefined),inconclusive: 2.79%,–
Cc1ccc(S(=O)(=O)N(C)c2ccc(OCc3cccc(C)c3)cc2)cc1,inactive,–
Cc1ccccc1C(=O)OC1OC(=O)C(Cl)=C1Nc1ccccc1 (centres undefined),–,"inconclusive: 17.8 µM [falling, partial curve]"
CCOc1ccc(-n2nc3cc(C)c(N)cc3n2)cc1,inconclusive: -0.942%,–
COc1cc(/C=C/C(=O)c2ccc3c(c2)OCO3)cc(Cl)c1O,inconclusive: -26.3%,–
COc1ccc(-c2[nH]nc3oc(=O)c(CCO)c(C)c23)cc1,inactive,–
CC(=O)N(Cc1ccccc1)c1nc(-c2ccccc2)cs1,inconclusive: 26.2%,–
COc1ccc(C(CNC(=O)COc2cccc(C(F)(F)F)c2)N2CCCC2)cc1 (centres undefined),inconclusive: -12.7%,–
CCN(CC)c1ccc(/C=C/c2cc(-c3ccccc3)c3ccccc3n2)cc1,inactive,–
CC(C)Cc1ccc(C(=O)NCc2ccc3c(c2)OCO3)o1,–,"inconclusive: 35.5 µM [falling, single point]"
N#Cc1ccc(OCc2ccc(C(=O)O)o2)cc1,inconclusive: -15.7%,–
Cn1c(=O)c2c(n(C)c1=O)=NC1(CCCCC1)ON=2,inconclusive: 3.06%,–
O=C1CC(c2ccccc2Cl)=NN(c2ncnc3ccccc23)C1=O,–,"inconclusive: 35.5 µM [rising, single point]"
Cc1ccc(S(=O)(=O)N2CCC(c3ccncc3)CC2)c(C)c1,inactive,–
C=CCC[C@H](Cc1ccc(F)cc1)C(=O)OC[C@H](C)NC(=O)[C@H](CC=C)CC(=O)N(CCO)Cc1ccccc1,inconclusive: -3.01%,–
Cc1cc(C(=O)Nc2c(C)n(C)n(-c3ccccc3)c2=O)cs1,inconclusive: 2.45%,–
CC(C)(C)c1ccc(C(=O)N2CCN(S(=O)(=O)c3ccc(Br)s3)CC2)cc1,inactive,–
CC(C)Oc1cccc(C(=O)C2CCCN(C(=O)c3ccccn3)C2)c1 (centres undefined),inactive,–
CCN(CC)CCn1c(=S)[nH]c2ncccc2c1=O,inconclusive: 14.2%,–
COc1cccc(-c2nc(CS(=O)CC(=O)NC3CCCC3)c(C)o2)c1 (centres undefined),inconclusive: 13.9%,–
CCn1ncc(Br)c1C(=O)Nc1ccc(C(C)C)cc1,inconclusive: 0.165%,–
